The target in test [1] is MuRF2 (yeast two-hybrid construct) (UniProt Q9BYV6). The test can be described thus: two-hybrid; yeast mating experiments, β-galactosidase reporter; Bif-1 as prey clone.
Test [2] deals with MuRF1 (yeast two-hybrid construct) (UniProt Q969Q1). The description is as above.
Test [3] deals with MuRF1 (mouse (endogenous in skeletal muscle)) (UniProt Q38HM4). Briefly: co-IP; quadriceps extracts of WT and MuRF1-KO mice starved for 24 h; 50 mM Tris/Cl pH 8.0, 150 mM NaCl, 1 % NP40, 10 % glycerol, 1 mM DTT; MuRF1 precipitated with rabbit polyclonal anti-RING H2 MuRF1 antibody and Protein A-sepharose at 4 °C; Western blot for Bif-1. Background: A western blot detects proteins with antibodies after separation by electrophoresis.

By UniProt entry, the sequences of proteins in these tests, tags left out.
UniProt Q9BYV6: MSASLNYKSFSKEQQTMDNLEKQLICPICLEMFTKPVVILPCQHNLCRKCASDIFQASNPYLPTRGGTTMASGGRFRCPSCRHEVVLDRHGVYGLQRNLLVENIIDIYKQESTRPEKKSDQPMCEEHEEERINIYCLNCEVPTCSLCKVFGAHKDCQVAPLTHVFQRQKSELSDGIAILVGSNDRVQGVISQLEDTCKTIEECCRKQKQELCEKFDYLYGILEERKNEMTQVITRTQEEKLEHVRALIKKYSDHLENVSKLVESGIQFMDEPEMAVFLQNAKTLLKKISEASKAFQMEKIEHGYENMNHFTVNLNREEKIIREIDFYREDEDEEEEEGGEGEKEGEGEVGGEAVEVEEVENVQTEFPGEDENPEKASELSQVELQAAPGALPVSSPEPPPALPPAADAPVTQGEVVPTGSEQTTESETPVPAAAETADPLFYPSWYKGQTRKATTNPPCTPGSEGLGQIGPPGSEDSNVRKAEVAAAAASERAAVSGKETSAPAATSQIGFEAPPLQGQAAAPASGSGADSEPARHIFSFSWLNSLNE
UniProt Q969Q1: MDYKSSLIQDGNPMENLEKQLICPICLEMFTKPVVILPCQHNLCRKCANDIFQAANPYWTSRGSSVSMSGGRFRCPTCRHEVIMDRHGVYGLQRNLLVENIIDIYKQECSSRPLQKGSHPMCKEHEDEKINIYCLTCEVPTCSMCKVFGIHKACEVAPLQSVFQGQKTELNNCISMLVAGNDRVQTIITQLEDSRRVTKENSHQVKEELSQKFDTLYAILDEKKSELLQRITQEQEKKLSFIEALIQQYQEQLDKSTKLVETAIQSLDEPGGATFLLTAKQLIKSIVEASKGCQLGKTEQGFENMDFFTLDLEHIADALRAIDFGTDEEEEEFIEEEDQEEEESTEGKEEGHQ
UniProt Q38HM4: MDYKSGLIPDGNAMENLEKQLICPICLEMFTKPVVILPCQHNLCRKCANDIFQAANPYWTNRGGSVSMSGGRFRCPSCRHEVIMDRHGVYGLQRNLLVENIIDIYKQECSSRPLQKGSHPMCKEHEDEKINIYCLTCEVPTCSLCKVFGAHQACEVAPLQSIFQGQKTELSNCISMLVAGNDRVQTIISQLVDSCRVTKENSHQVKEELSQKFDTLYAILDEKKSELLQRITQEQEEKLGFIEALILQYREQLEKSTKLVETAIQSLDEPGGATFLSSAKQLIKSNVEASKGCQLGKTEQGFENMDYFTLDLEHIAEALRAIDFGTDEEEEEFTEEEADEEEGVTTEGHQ

Results are given in words; binding and its absence hold for the method and conditions named. For part of these data: Binding seen in cells or lysates may run through a third protein. Some binding calls cover weakened binding; strength is not graded here.

B1: Endophilin B1/Bif-1 (yeast two-hybrid prey clone) (protein, UniProt Q9Y371 1-365)
chain: MNIMDFNVKKLAADAGTFLSRAVQFTEEKLGQAEKTELDAHLENLLSKAECTKIWTEKIMKQTEVLLQPNPNARIEEFVYEKLDRKAPSRINNPELLGQYMIDAGTEFGPGTAYGNALIKCGETQKRIGTADRELIQTSALNFLTPLRNFIEGDYKTIAKERKLLQNKRLDLDAAKTRLKKAKAAETRNSSEQELRITQSEFDRQAEITRLLLEGISSTHAHHLRCLNDFVEAQMTYYAQCYQYMLDLQKQLGSFPSNYLSNNNQTSVTPVPSVLPNAIGSSAMASTSGLVITSPSNLSDLKECSGSRKARVLYDYDAANSTELSLLADEVITVFSVVGMDSDWLMGERGNQKGKVPITYLELLN
In the case of B1, the binding result in test [1] is “no binding”; in test [2], “binds”.

B2: Endophilin B1/Bif-1 (protein, UniProt Q9JK48-1 1-365)
chain: MNIMDFNVKKLAADAGTFLSRAVQFTEEKLGQAEKTELDAHLENLLSKAECTKIWTEKIMKQTEVLLQPNPNARIEEFVYEKLDRKAPSRINNPELLGQYMIDAGTEFGPGTAYGNALIKCGETQKRIGTADRELIQTSALNFLTPLRNFIEGDYKTIAKERKLLQNKRLDLDAAKTRLKKAKAAETKSSSEQELRITQSEFDRQAEITRLLLEGISSTHAHHLRCLNDFVEAQMTYYAQCYQYMLDLQKQLGSFPSNYLSNNNQTSGTPVPYALSNAIGPSAQASTGSLVITCPSNLNDLKESSNNRKARVLYDYDAANSTELSLLADEVITVFSVVGMDSDWLMGERGNQKGKVPITYLELLN
On to B2, for which the binding entry in test [3] is listed as “binds”.

Values taken from publication PMC3776120.
